Results from the supplement of paper PMC8728848.
The list shows a part of the results.

Columns and labels:
Assay in all cases: glycan array binding signal (z-score within array); higher = stronger binding
Settings in all cases: glycan notation: IUPAC condensed, linker removed
[1] = target: Gal(b1-3)GlcNAc(b1-2)Man(a1-3)[Gal(b1-3)GlcNAc(b1-2)Man(a1-6)]Man(b1-4)GlcNAc(b1-4)GlcNAc
In short: (§1)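 Arrays were curated from the Consortium for Functional Glycomics database, 3228 in total, and kept only where the protein sequence was available. Binding is expressed as a within-array Z-score. This score was averaged across arrays of the same protein sequence at different concentrations or buffers and across linkers, and negative values can be read as non-binding.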

[2] = target: Gal(b1-3)GlcNAc(b1-2)Man(a1-3)[Gal(b1-3)GlcNAc(b1-2)Man(a1-6)]Man(b1-4)GlcNAc(b1-4)[Fuc(a1-6)]GlcNAc
In short: as §1

[3] = target: Gal(b1-3)GlcNAc(b1-2)Man(a1-3)[GlcNAc(b1-4)][Gal(b1-3)GlcNAc(b1-2)Man(a1-6)]Man(b1-4)GlcNAc(b1-4)GlcNAc
In short: as §1

[4] = target: Gal(b1-3)GlcNAc(b1-2)[Gal(b1-3)GlcNAc(b1-6)]Man(a1-6)[Gal(b1-3)GlcNAc(b1-2)Man(a1-3)]Man(b1-4)GlcNAc(b1-4)GlcNAc
In short: as §1

[5] = target: Gal(b1-3)GlcNAc(b1-3)Gal(b1-3)GlcNAc
In short: as §1

[6] = target: Gal(b1-3)GlcNAc(b1-3)Gal(b1-4)Glc
In short: as §1

[7] = target: Gal(b1-3)GlcNAc(b1-3)Gal(b1-4)GlcNAc
In short: as §1

[8] = target: Gal(b1-3)GlcNAc(b1-3)Gal(b1-4)GlcNAc(b1-2)Man(a1-3)[Gal(b1-3)GlcNAc(b1-3)Gal(b1-4)GlcNAc(b1-2)Man(a1-6)]Man(b1-4)GlcNAc(b1-4)GlcNAc
In short: as §1

[9] = target: Gal(b1-3)GlcNAc(b1-3)Gal(b1-4)GlcNAc(b1-2)[Gal(b1-3)GlcNAc(b1-3)Gal(b1-4)GlcNAc(b1-6)]Man(a1-6)[Gal(b1-3)GlcNAc(b1-3)Gal(b1-4)GlcNAc(b1-2)Man(a1-3)]Man(b1-4)GlcNAc(b1-4)[Fuc(a1-6)]GlcNAc
In short: as §1

[10] = target: Gal(b1-3)GlcNAc(b1-3)Gal(b1-4)GlcNAc(b1-3)Gal(b1-4)GlcNAc(b1-2)[Gal(b1-3)GlcNAc(b1-3)Gal(b1-4)GlcNAc(b1-3)Gal(b1-4)GlcNAc(b1-6)]Man(a1-6)[Gal(b1-3)GlcNAc(b1-3)Gal(b1-4)GlcNAc(b1-3)Gal(b1-4)GlcNAc(b1-2)Man(a1-3)]Man(b1-4)GlcNAc(b1-4)[Fuc(a1-6)]GlcNAc
In short: as §1

[11] = target: Gal(b1-3)GlcNAc(b1-3)Gal(b1-4)GlcNAc(b1-6)[Gal(b1-3)GlcNAc(b1-3)]Gal(b1-4)Glc
In short: as §1

[12] = target: Gal(b1-3)GlcNAc(b1-3)Gal(b1-4)[Fuc(a1-3)]GlcNAc
In short: as §1

[13] = target: Gal(b1-3)GlcNAc(b1-3)Gal(b1-4)[Fuc(a1-3)]GlcNAc(b1-6)[Gal(b1-3)GlcNAc(b1-3)]Gal(b1-4)Glc
In short: as §1

[14] = target: Gal(b1-3)GlcNAc(b1-3)GalNAc
In short: as §1

[15] = target: Gal(b1-3)GlcNAc(b1-6)Gal(b1-4)GlcNAc
In short: as §1

[16] = target: Gal(b1-3)GlcNAc(b1-6)GalNAc
In short: as §1

[17] = target: Gal(b1-3)GlcNAc(b1-6)[Gal(b1-3)]GalNAc
In short: as §1

Gal(b1-3)GlcNAc6S = target: Gal(b1-3)GlcNAc6S
In short: as §1

[18] = target: Gal(b1-3)[Fuc(a1-4)]GlcNAc
In short: as §1

[19] = target: Gal(b1-3)[Fuc(a1-4)]GlcNAc(b1-2)Man
In short: as §1

[20] = target: Gal(b1-3)[Fuc(a1-4)]GlcNAc(b1-2)Man(a1-3)[Gal(b1-3)[Fuc(a1-4)]GlcNAc(b1-2)Man(a1-6)]Man(b1-4)GlcNAc(b1-4)[Fuc(a1-6)]GlcNAc
In short: as §1

[21] = target: Gal(b1-3)[Fuc(a1-4)]GlcNAc(b1-3)Gal(b1-3)[Fuc(a1-4)]GlcNAc
In short: as §1

[22] = target: Gal(b1-3)[Fuc(a1-4)]GlcNAc(b1-3)Gal(b1-4)[Fuc(a1-3)]GlcNAc
In short: as §1

[23] = target: Gal(b1-3)[Fuc(a1-4)]GlcNAc(b1-6)GalNAc
In short: as §1

[24] = target: Gal(b1-3)[GlcNAc(b1-6)]GalNAc
In short: as §1

[25] = target: Gal(b1-3)[Neu5Ac(a2-6)]GalNAc
In short: as §1

[26] = target: Gal(b1-3)[Neu5Ac(a2-6)]GlcNAc(b1-4)Gal(b1-4)Glc
In short: as §1

[27] = target: Gal(b1-3)[Neu5Ac(b2-6)]GalNAc
In short: as §1

Gal(b1-4)Gal = target: Gal(b1-4)Gal
In short: as §1

[28] = target: Gal(b1-4)GalNAc(a1-3)[Fuc(a1-2)]Gal(b1-4)GlcNAc
In short: as §1

B1: CcfD (Bacteroides vulgatus), A6KYX8 (protein)
chain: MKYKNYFKSIIYLALGAFTLGSCEDFLDRQEDEKLTFDKIWESRNTTQQYWLNAMSFLPNENGSLQGDTEPYLGASDECTIAYDRQYRWINFGTWNPSQVPYYKMDHYYKGIRECNIFLQNVYKCSDPLVTKDQLDEWYWQTRFARAYYYFLMMRDYGPVFLLGDDLLDFTASTEELYRPRNTWDQCVNYVVSEMTQCAESGVVLQQSDLPAAKWGLATVGTCHAVISRLLLYSARPLFNGNKLYSTVKNPDAPDFPELSGVKLFPELDNTKWQKAAEAAKKLIDNPCYELYRAGNDNPYEDYYGVTHETWNKELIWTDRYNGLFSWGVGTVPTGVAGTAYGAVGPTQALVDAYAMNTGWYPITGYEADGTPIVEPLSGYELASELEKSSWIYPSGGWSNKADFEIEAPNMYKDREPRFYVTVFFGGNQWLHGNSATSISFAKGGNGNKSHDYPKSGYLCNRFYDHKLNSSEGQWGNITFPVFRLGEIYLNFIEAVLECKKNGVALDPSYEALAMEKWADLRKRAGLDPITSIYGQVSTEELIQLCRKERQIELAFERHRYFDTRTWMIATQTDNGKMYGMNTSCPLDAGMKGTETPDGFWERTAFETRVFQNKHYLYPFSQRELDRNKLLTQNYGW
[1]
  glycan array binding signal (z-score): -0.185
[2]
  glycan array binding signal (z-score): 1.02
[3]
  glycan array binding signal (z-score): -0.881
[4]
  glycan array binding signal (z-score): -0.47
[5]
  glycan array binding signal (z-score): 0.958
[6]
  glycan array binding signal (z-score): -0.912
[7]
  glycan array binding signal (z-score): -0.693
[8]
  glycan array binding signal (z-score): -0.343
[9]
  glycan array binding signal (z-score): -0.759
[10]
  glycan array binding signal (z-score): 0.999
[11]
  glycan array binding signal (z-score): -0.526
[12]
  glycan array binding signal (z-score): -0.668
[13]
  glycan array binding signal (z-score): -0.642
[14]
  glycan array binding signal (z-score): -0.2
[15]
  glycan array binding signal (z-score): -0.932
[16]
  glycan array binding signal (z-score): 0.841
[17]
  glycan array binding signal (z-score): -0.083
Gal(b1-3)GlcNAc6S
  glycan array binding signal (z-score): -0.947
[18]
  glycan array binding signal (z-score): -0.269
[19]
  glycan array binding signal (z-score): -0.983
[20]
  glycan array binding signal (z-score): 1.41
[21]
  glycan array binding signal (z-score): -0.871
[22]
  glycan array binding signal (z-score): 1.52
[23]
  glycan array binding signal (z-score): -0.022
[24]
  glycan array binding signal (z-score): -0.348
[25]
  glycan array binding signal (z-score): 0.796
[26]
  glycan array binding signal (z-score): -0.698
[27]
  glycan array binding signal (z-score): -0.861
Gal(b1-4)Gal
  glycan array binding signal (z-score): -0.673
[28]
  glycan array binding signal (z-score): -0.409
